From PubChem BioAssay AID248 (DTP/NCI, 2004)
The list is a part of this screen's results and no random one: it gathers some chemical classes. Other doses and runs of a compound may be missing. T/C gives the treated animals as a percentage of the vehicle group. Some doses have a count of surviving animals in place of a T/C: the source files T/C as zero there, which appears to mark a toxic dose or a test without result, not a measured value. Some doses without a T/C left all or most animals alive at the check, yet need not have been tolerated: the source hardly ever lists a survival T/C far under the control, and the zero likely stands for such cases as well. Counts of survivors are from the toxicity check (mostly the fifth day) where no day follows; animals may have died later. Schedules are NCI's codes, taken here to give the interval after Q, in days (D) or hours (H), and the number of doses after X. Some schedules carry Z or #; the key to these is not given. For survival time, the PubChem record calls one and a half times the control and up active, and a quarter to a half above the control has no call in these data; cut-offs in other NCI protocols can differ. Some entries were tested several times; the values are given in rising order. Some T/C values are marked as having no survivor count here; that says nothing about deaths at the dose. Some T/C values carry the count of animals alive at the toxicity check (mostly the fifth day); where neither a count nor a note follows, no animal had died by that day.

Test system: L1210 leukemia ip in BDF1 mice, survival T/C
Assay: NCI In Vivo Anticancer Drug Screen. Data for tumor model L1210 Leukemia (intraperitoneal) in B6D2F1 (BDF1) mice
Conditions: T/C endpoint: mean survival time, higher T/C = longer survival
[1] = dose: 50.0 mg/kg/injection, schedule: Q01DX001 (ip), vehicle: saline
[2] = dose: 100.0 mg/kg/injection, schedule: Q01DX001 (ip), vehicle: saline
[3] = dose: 200.0 mg/kg/injection, schedule: Q01DX001 (ip), vehicle: saline
[4] = dose: 400.0 mg/kg/injection, schedule: Q01DX001 (ip), vehicle: saline
[5] = dose: 100.0 mg/kg/injection, schedule: Q04DX002 (ip), vehicle: saline with Tween-80
[6] = dose: 200.0 mg/kg/injection, schedule: Q04DX002 (ip), vehicle: saline with Tween-80
[7] = dose: 400.0 mg/kg/injection, schedule: Q04DX002 (ip), vehicle: saline with Tween-80
[8] = dose: 100.0 mg/kg/injection, schedule: Q01DX001 (ip), vehicle: carboxymethylcellulose (CMC)
[9] = dose: 100.0 mg/kg/injection, schedule: Q04DX003 (ip), vehicle: Klucel (hydroxypropylcellulose) (HPC)
[10] = dose: 200.0 mg/kg/injection, schedule: Q01DX001 (ip), vehicle: carboxymethylcellulose (CMC)
[11] = dose: 200.0 mg/kg/injection, schedule: Q04DX003 (ip), vehicle: Klucel (hydroxypropylcellulose) (HPC)
[12] = dose: 400.0 mg/kg/injection, schedule: Q01DX001 (ip), vehicle: carboxymethylcellulose (CMC)
[13] = dose: 25.0 mg/kg/injection, schedule: Q04DX002 (ip), vehicle: saline with Tween-80
[14] = dose: 50.0 mg/kg/injection, schedule: Q04DX002 (ip), vehicle: saline with Tween-80
[15] = dose: 400.0 mg/kg/injection, schedule: Q04DX003 (ip), vehicle: Klucel (hydroxypropylcellulose) (HPC)

COC1OC(CNCCBr)C2OC(C)(C)OC12 (centres undefined)
T/C (dose: 2.25 mg/kg/injection, schedule: Q01DX009 (ip), vehicle: saline): 98 % of control
T/C (dose: 4.5 mg/kg/injection, schedule: Q01DX009 (ip), vehicle: saline): 93 % of control
T/C (dose: 9.0 mg/kg/injection, schedule: Q01DX009 (ip), vehicle: saline): 94 % of control
T/C (dose: 18.0 mg/kg/injection, schedule: Q01DX009 (ip), vehicle: saline): 105 % of control
T/C (dose: 36.0 mg/kg/injection, schedule: Q01DX009 (ip), vehicle: saline): 137 % of control
T/C [1]: 124 % of control
T/C [2]: 125 % of control
T/C [3]: 124 % of control [5 of 6 alive]
T/C [4]: 96 % of control

CCOP(OCC)c1cccs1
T/C [5]: 100 % of control
T/C [6]: 100 % of control
T/C [7]: 103 % of control

Cc1cc(/C=N/N(C)C)ccc1N(CCCl)CCCl
T/C (dose: 25.0 mg/kg/injection, schedule: Q04DX002 (ip), vehicle: Klucel (hydroxypropylcellulose) (HPC)): 120 % of control
T/C (dose: 50.0 mg/kg/injection, schedule: Q04DX002 (ip), vehicle: Klucel (hydroxypropylcellulose) (HPC)): 104 % of control
T/C (dose: 100.0 mg/kg/injection, schedule: Q04DX002 (ip), vehicle: Klucel (hydroxypropylcellulose) (HPC)): 97 and 101 % of control
survivor count (dose: 200.0 mg/kg/injection, schedule: Q04DX002 (ip), vehicle: Klucel (hydroxypropylcellulose) (HPC)): 1 of 3
survivor count (dose: 400.0 mg/kg/injection, schedule: Q04DX002 (ip), vehicle: Klucel (hydroxypropylcellulose) (HPC)): 0 of 3

CC(=O)OCN(CN(CN(COC(C)=O)[N+](=O)[O-])[N+](=O)[O-])[N+](=O)[O-]
T/C [8]: 93 % of control [survivor count not shown]
T/C [9]: 107 % of control [survivor count not shown]
T/C [10]: 100 % of control [survivor count not shown]
T/C [11]: 111 % of control [survivor count not shown]
T/C [12]: 102 % of control [survivor count not shown]

CCOP(C)(=S)Cl (centres undefined)
T/C (dose: 12.5 mg/kg/injection, schedule: Q04DX002 (ip), vehicle: saline with Tween-80): 105 % of control [survivor count not shown]
T/C [13]: 97 % of control [survivor count not shown]
T/C [14]: 87 % of control [survivor count not shown]

O=C(CCCN1CCC(OC(=O)C(O)(c2ccccc2)c2ccccc2)CC1)c1ccc(F)cc1
T/C [9]: 97 % of control
T/C [15]: 102 % of control

O=[N+]([O-])Nc1ccc(N[N+](=O)[O-])nn1
T/C [2]: 93 % of control [survivor count not shown]
T/C [3]: 102 % of control [survivor count not shown]
T/C [4]: 98 % of control [survivor count not shown]

CS(=O)(=O)OC1CSCCc2ccccc21 (centres undefined)
T/C (dose: 25.0 mg/kg/injection, schedule: Q01DX001 (ip), vehicle: carboxymethylcellulose (CMC)): 102 % of control
T/C (dose: 50.0 mg/kg/injection, schedule: Q01DX001 (ip), vehicle: carboxymethylcellulose (CMC)): 104 % of control
T/C [8]: 102 % of control

O=C(O)CCCC(=O)SCCCl
survivor count [1]: 4 of 4
T/C [2]: 93 % of control
T/C [3]: 88 % of control
T/C [4]: 88 % of control

CN(CN(CN(C)[N+](=O)[O-])CN(C)[N+](=O)[O-])[N+](=O)[O-]
T/C [8]: 96 % of control [survivor count not shown]
T/C [9]: 105 % of control [survivor count not shown]
T/C [10]: 98 % of control [survivor count not shown]
T/C [11]: 101 % of control [survivor count not shown]
T/C [12]: 96 % of control [survivor count not shown]
T/C [15]: 108 % of control [survivor count not shown]

C[CH2][Ge]([C]#N)([CH2]C)[CH2]C
T/C (dose: 6.25 mg/kg/injection, schedule: Q04DX003 (ip), vehicle: saline): 101 % of control
T/C (dose: 12.5 mg/kg/injection, schedule: Q04DX003 (ip), vehicle: saline): 100 % of control
survivor count (dose: 25.0 mg/kg/injection, schedule: Q04DX003 (ip), vehicle: saline): 0 of 6
survivor count (dose: 50.0 mg/kg/injection, schedule: Q04DX003 (ip), vehicle: saline): 0 of 6
survivor count (dose: 100.0 mg/kg/injection, schedule: Q04DX003 (ip), vehicle: saline): 0 of 6
survivor count (dose: 200.0 mg/kg/injection, schedule: Q04DX003 (ip), vehicle: saline): 0 of 6
survivor count (dose: 400.0 mg/kg/injection, schedule: Q04DX003 (ip), vehicle: saline): 0 of 6

CC1(C)CC(OP(=O)(Cl)Cl)CC(C)(C)N1O
T/C (dose: 100.0 mg/kg/injection, schedule: Q04DX002 (ip), vehicle: water): 104 % of control
T/C (dose: 200.0 mg/kg/injection, schedule: Q04DX002 (ip), vehicle: water): 101 % of control [2 of 3 alive]
survivor count (dose: 400.0 mg/kg/injection, schedule: Q04DX002 (ip), vehicle: water): 0 of 3

CSP1(SC)=NP(Cl)(Cl)=NP(Cl)(Cl)=N1
T/C (dose: 25.0 mg/kg/injection, schedule: Q01DX009 (ip), vehicle: saline with Tween-80): 97 % of control
T/C [13]: 100 % of control
T/C (dose: 50.0 mg/kg/injection, schedule: Q01DX009 (ip), vehicle: saline with Tween-80): 106 % of control
T/C [14]: 87 % of control
T/C (dose: 100.0 mg/kg/injection, schedule: Q01DX009 (ip), vehicle: saline with Tween-80): 106 % of control
T/C [5]: 94 and 110 % of control
survivor count [6]: 3 of 3
survivor count [7]: 0 of 3

O[As](O)O.S=C(S)c1ccccc1S
T/C [2]: 102 % of control
survivor count [3]: 3 of 6
survivor count [4]: 0 of 6

[N-]=[N+]=CC(=O)CCN(CCC(=O)C=[N+]=[N-])[N+](=O)[O-]
T/C [5]: 105 % of control
T/C [6]: 108 % of control
T/C [7]: 101 % of control

O=P(Nc1ncccn1)(N1CC1)N1CC1
T/C (dose: 1.3 mg/kg/injection, schedule: Q01DX Z (ip), vehicle: saline): 109 % of control
T/C (dose: 2.0 mg/kg/injection, schedule: Q01DX Z (ip), vehicle: saline): 108 % of control
T/C (dose: 3.0 mg/kg/injection, schedule: Q01DX Z (ip), vehicle: saline): 123 % of control
T/C (dose: 5.0 mg/kg/injection, schedule: Q01DX Z (ip), vehicle: saline): 161 % of control
T/C (dose: 7.0 mg/kg/injection, schedule: Q01DX Z (ip), vehicle: saline): 179 and 190 % of control
T/C (dose: 10.0 mg/kg/injection, schedule: Q01DX Z (ip), vehicle: saline): 169 and 223 % of control
T/C (dose: 15.0 mg/kg/injection, schedule: Q01DX Z (ip), vehicle: saline): 157, 180, 183 % of control
T/C (dose: 23.0 mg/kg/injection, schedule: Q01DX Z (ip), vehicle: saline): 94, 134, 156 % of control
T/C (dose: 35.0 mg/kg/injection, schedule: Q01DX001 (ip), vehicle: saline): 136 % of control
T/C (dose: 35.0 mg/kg/injection, schedule: Q01DX Z (ip), vehicle: saline): 109 % of control
survivor count (dose: 52.0 mg/kg/injection, schedule: Q01DX Z (ip), vehicle: saline): 4 of 6
T/C (dose: 53.0 mg/kg/injection, schedule: Q01DX001 (ip), vehicle: saline): 214 % of control
T/C (dose: 80.0 mg/kg/injection, schedule: Q01DX001 (ip), vehicle: saline): 202 % of control [5 of 6 alive]
survivor count [2]: 0 of 6
survivor count (dose: 120.0 mg/kg/injection, schedule: Q01DX001 (ip), vehicle: saline): 2 of 6
survivor count [3]: 1 of 6
survivor count [4]: 4 of 6
